Values of other authors in US20040116329A1, “Inhibition of proteasomes to prevent restenosis” (priority 2004, published 2004).
At least one compound was matched to its structure with a doubt left.

Test system: neointimal response to injury

## CO[C@H]1C[C@@H]2CC[C@@H](C)[C@@](O)(O2)C(=O)C(=O)N2CCCC[C@H]2C(=O)O[C@H]([C@H](C)C[C@@H]2CC[C@@H](O)[C@H](OC)C2)CC(=O)[C@H](C)/C=C(\C)[C@@H](O)[C@@H](OC)C(=O)[C@H](C)C[C@H](C)/C=C/C=C/C=C/1C [rapamycin]
Pig coronary artery injury model
  neointimal response to injury: significantly reduce the neointimal response to injury
Porcine injury model
  p27 levels within the vessel wall: increased p27 levels
  pRb phosphorylation within the vessel wall: inhibition of pRb phosphorylation
